Literature values in patent US20140058108A1 (SINOXA PHARMA UG, priority 2010, published 2014).

Chains of the proteins cited; added tags and fusions are not shown.
UniProt P30994, whole entry: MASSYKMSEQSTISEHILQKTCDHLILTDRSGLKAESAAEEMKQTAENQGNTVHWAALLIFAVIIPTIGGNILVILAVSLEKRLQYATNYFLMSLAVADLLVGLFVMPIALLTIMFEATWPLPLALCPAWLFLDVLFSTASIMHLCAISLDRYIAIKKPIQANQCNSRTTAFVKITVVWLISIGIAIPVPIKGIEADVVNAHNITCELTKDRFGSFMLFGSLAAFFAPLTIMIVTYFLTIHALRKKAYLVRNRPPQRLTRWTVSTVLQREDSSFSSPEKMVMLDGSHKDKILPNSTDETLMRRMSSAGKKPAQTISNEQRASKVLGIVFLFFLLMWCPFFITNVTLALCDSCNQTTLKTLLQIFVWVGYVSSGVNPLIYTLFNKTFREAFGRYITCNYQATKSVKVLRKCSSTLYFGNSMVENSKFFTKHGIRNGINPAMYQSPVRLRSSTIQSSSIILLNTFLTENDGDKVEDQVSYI

Target: 5-HT2B receptors (isolated rat stomachs) (Rattus norvegicus, UniProt P30994)
Details: in vitro, isolated rat stomachs [Villalon 2003; Podvalova 1972]; cited from earlier work

Q: Which anti-serotoninergic potency does the source give for `CCN(CC)C(=O)N[C@H]1C=C2c3cccc4[nH]cc(c34)C[C@H]2N(C)C1` [Lisuride, 3-(9,10-didehydro-6-methylergoline-8alpha-yl)-1,1-diethylurea] here?
A: The anti-serotoninergic potency was “especially high anti-serotoninergic potency”.
